The structures appear in SMILES notation. Screen size: about 2,000 compounds; about 45 (2%) were called active.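 The calls were made as follows: active = inhibition above the screen-wide mean inhibition plus 3 SD (cut at about 44% in these data); inactive = the rest.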 The list shows a part of the results.

Sequences of proteins named here, by UniProt entry; tags and fusion partners are left off. A change or cut given only in a name is not applied to a line headed by its entry.
UniProt O60240: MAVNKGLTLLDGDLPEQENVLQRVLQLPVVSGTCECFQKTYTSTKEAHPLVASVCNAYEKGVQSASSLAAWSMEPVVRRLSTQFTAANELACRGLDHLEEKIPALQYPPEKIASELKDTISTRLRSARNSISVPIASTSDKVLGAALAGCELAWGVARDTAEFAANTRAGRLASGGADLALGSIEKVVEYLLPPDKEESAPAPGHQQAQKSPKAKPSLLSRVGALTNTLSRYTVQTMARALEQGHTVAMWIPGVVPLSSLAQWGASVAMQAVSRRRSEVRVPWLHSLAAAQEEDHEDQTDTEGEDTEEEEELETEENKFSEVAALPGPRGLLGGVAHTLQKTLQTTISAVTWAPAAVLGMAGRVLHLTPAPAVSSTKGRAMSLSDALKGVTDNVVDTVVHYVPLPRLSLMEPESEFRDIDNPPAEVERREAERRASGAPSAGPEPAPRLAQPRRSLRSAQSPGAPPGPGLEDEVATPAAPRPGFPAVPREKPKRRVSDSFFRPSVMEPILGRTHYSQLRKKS
UniProt Q8WTS1: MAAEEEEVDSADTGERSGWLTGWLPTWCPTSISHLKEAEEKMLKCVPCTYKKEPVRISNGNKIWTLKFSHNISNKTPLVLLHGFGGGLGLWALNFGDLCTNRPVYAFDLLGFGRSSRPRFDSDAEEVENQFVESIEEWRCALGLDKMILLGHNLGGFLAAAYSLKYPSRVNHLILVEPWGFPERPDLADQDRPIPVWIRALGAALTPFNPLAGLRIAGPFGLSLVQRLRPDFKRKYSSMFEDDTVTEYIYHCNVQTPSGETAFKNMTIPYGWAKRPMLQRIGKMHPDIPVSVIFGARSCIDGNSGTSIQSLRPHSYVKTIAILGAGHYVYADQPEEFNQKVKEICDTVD

For the assay, the target named is Perilipin-1 (Homo sapiens) + 1-acylglycerol-3-phosphate O-acyltransferase ABHD5 (Homo sapiens) (UniProt O60240+Q8WTS1). In words: ABHD5-PLIN1 interaction inhibitors, pilot screen, cell lysate, split luciferase complementation, luminescence, NIH validation set (AID 493027).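 Also: 0% = DMSO wells with the 100% control not disclosed.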 As to conditions: split G. princeps luciferase complementation, 4 h; at 7.9 µM, stronger effect = higher value.
The inhibition is the drop in the measured response relative to a control, in per cent. With `CCOc1ccc(C(NC(C)=O)c2ccc(OC)c(OC)c2)cc1` (stereo not drawn), the inhibition was inactive: -10.9%.
As for `CC1(c2ccccc2)CC(C)(C)N2C(=O)C(=O)c3cccc1c32` (stereo not drawn), the figure is active: 65.7%.
In the case of `CC1/C(=C\c2ccc(Cl)cc2)C(=O)C2CC1C2(C)C` (stereo not drawn), the inhibition was inactive: -9.57%.
As to `CN(C)CCOc1ccccc1Cc1ccccc1`, the inhibition is inactive: 30.3%.
As for `CC1=CC(=O)c2ccccc2C1=O`, the figure is active: 44.4%; as for `COc1ccccc1/C=C/C(=O)OCCN1CCOCC1`, inactive: -9.02%; as for `COc1ccc(S(=O)(=O)NC(Cc2cnc[nH]2)C(=O)O)cc1` (stereo not drawn), inactive: 2.12%.
As for `C#CCN1C(=O)C(O)(CC(=O)c2ccc(OC)c(OC)c2)c2ccccc21` (stereo not drawn), the figure is inactive: 0.58%; as for `CCCCC1C(=O)N(c2ccccc2)N(c2ccccc2)C1=O`, inactive: 2.97%.
With `COC(=O)[C@@H](N)CS`, the inhibition is active: 65.9%.
Consider `Cc1cn([C@H]2C[C@H](N=[N+]=[N-])[C@@H](CO)O2)c(=O)[nH]c1=O`, for which the inhibition was inactive: -1.15%.
Regarding `O=C(CS(=O)(=O)c1ccccc1)c1ccc2c(c1)OCCO2`, the inhibition was inactive: -12.8%.
As for `COc1ccc([C@@H]2Sc3ccccc3N(CCN(C)C)C(=O)[C@@H]2OC(C)=O)cc1`, the inhibition was inactive: -10.8%.
Take `CN(C)CCN(Cc1ccc(Cl)cc1)c1ccccn1`: the inhibition was inactive: -4.65%.
Regarding `O=C(c1cccc2ccccc12)C1CCCN(C(=O)CCN2CCCO2)C1` (stereo not drawn), the inhibition was inactive: -7.39%.
`Cc1onc(-c2c(Cl)cccc2Cl)c1C(=O)NC1C(=O)N2C1SC(C)(C)C2C(=O)O` (stereo not drawn): the inhibition is inactive: -6.51%.
For `CN(CCCN1CCOCC1)Cc1cn(C)nc1-c1ccccc1F`, the inhibition was inactive: -4.68%.
Consider `Cc1cccc2c1CC(C)(C)N/C2=C\C(N)=O`, for which the inhibition is inactive: 0.8%.
Turning to `CC(C[N+](C)(C)C)OC(N)=O` (stereo not drawn), the inhibition is inactive: -3.45%.
The same measure for `CCOC(=O)C1NN=C(C(=O)c2ccccc2)C1c1ccc(Cl)cc1` (stereo not drawn): inactive: 7.72%; for `COC(=O)c1cc(Br)c(=O)n(CCc2ccc(O)cc2)c1`: inactive: 4.19%.
As to `Cc1ccc2c(c1)C(CCN)C(=O)N2Cc1ccccc1` (stereo not drawn), the inhibition is inactive: -10.9%.
As for `CC(C)c1ccc2[nH]c3c(c2c1)CCCC3=O`, the figure is inactive: 3.94%; as for `COc1cc(C(=O)NCCc2c[nH]c3ccccc23)ccc1OCc1c(C)noc1C`, inactive: 17.5%; as for `CN(C)CCCNc1ncnc2c1cnn2-c1ccccc1`, inactive: -8.63%.
With `COc1cc(NC(=O)COc2ccccc2)c(OC)cc1NC(C)=O`, the inhibition was inactive: -10.3%.
Regarding `CN1/C(=C\C=Nc2ccccc2)C(C)(C)c2ccccc21`, the inhibition was inactive: 4.41%.
For the molecule `O=C(O)CCCNc1ccc(S(=O)(=O)Nc2ccccc2C(=O)O)cc1C(=O)O`, the inhibition was inactive: -7.27%.
As to `Cc1ccc2c(ccc(=S)n2C)c1`, the inhibition was inactive: -8.38%.
`CC1(C)[C@@H](O)CC[C@]2(C)[C@H]3C(=O)C=C4[C@@H]5C[C@@](C)(C(=O)O)CC[C@]5(C)CC[C@@]4(C)[C@]3(C)CC[C@@H]12`: the inhibition is inactive: 4.92%.
As for `COCCOC(=O)C1=C(C)NC(C)=C(C(=O)OC(C)C)C1c1cccc([N+](=O)[O-])c1` (stereo not drawn), the inhibition is inactive: 6.11%.
On to `CN1C(C(=O)Nc2ccccn2)=C(O)c2ccccc2S1(=O)=O`, for which the inhibition was inactive: -0.86%.
For the molecule `COc1ccc2c(c1)C(=O)CC(c1ccccc1F)O2` (stereo not drawn), the inhibition is inactive: 1.66%.
The same measure for `CC1(C)CC(c2csc(N)n2)CCO1` (stereo not drawn): inactive: -9.1%; for `C=C(C)COc1ccc(-c2n[nH]c(C)c2-c2ccc(OC)cc2)c(O)c1`: inactive: -1.72%; for `O=C(CCCN1CCC(O)(c2ccc(Cl)cc2)CC1)c1ccc(F)cc1`: inactive: -4.64%.
Consider `O=C(NC(=S)Nc1nc(-c2ccccc2)cs1)c1ccco1`, for which the inhibition was inactive: 5.5%.
As for `Cc1ccc(C)c(OCCCC(C)(C)C(=O)O)c1`, the figure is inactive: -12.4%; as for `c1ccc(SSc2ccccc2)cc1`, inactive: -5.29%; as for `COc1ccc2[nH]c(C)c(CN3CCC(C)CC3)c(=O)c2c1`, inactive: -4.96%.
The same measure for `Cc1ccccc1C(=O)NCC(=O)O`: inactive: 0.22%; for `CC(=O)CC(c1ccc([N+](=O)[O-])cc1)c1c(O)c2ccccc2oc1=O` (stereo not drawn): inactive: -0.92%; for `CCCCCCCCNC(C)C(O)c1ccc(SC(C)C)cc1` (stereo not drawn): inactive: -26.2%.
Regarding `COc1cc2c(cc1OC)C1(CCCCC1)CN(C)C2`, the inhibition was inactive: -0.02%.
As for `O=c1[nH]c(=O)n([C@H]2C[C@H](O)[C@@H](CO)O2)cc1C(F)(F)F`, the inhibition was inactive: -13.5%.
In the case of `CC(C)C(=O)Nc1ccc2c3c(cccc13)CC2`, the inhibition is inactive: -2.98%.
Regarding `Cc1nnc(SCC2=C(C(=O)O)N3C(=O)[C@@H](NC(=O)Cn4cnnn4)[C@H]3SC2)s1`, the inhibition is inactive: -11.7%.
As for `O=CNC1CCCc2c1[nH]c1ccc(Cl)cc21` (stereo not drawn), the figure is inactive: -6.27%.
In the case of `CCCC(=O)O[C@]1(C(=O)CO)CC[C@H]2[C@@H]3CCC4=CC(=O)CC[C@]4(C)[C@H]3[C@@H](O)C[C@@]21C`, the inhibition is inactive: 5.44%.
For `O=c1cc(CN2CCN(c3cccc(Cl)c3)CC2)c2cc(O)c(-c3ccccc3)cc2o1`, the inhibition was inactive: 1.13%.
On to `COc1ccc2oc(=O)c(-c3nc(C)cs3)cc2c1`, for which the inhibition is inactive: -14.4%.
Consider `Cc1ccccc1OCCSc1nc2ncnc(N)c2[nH]1`, for which the inhibition is inactive: -5.5%.
Consider `COc1ccc2nc(S(=O)Cc3ncc(C)c(OC)c3C)[nH]c2c1` (stereo not drawn), for which the inhibition is inactive: 2.38%.
The same measure for `Clc1ccc2c(c1)[C@H]1OCC[C@H]1[C@@H](c1ccco1)N2`: inactive: 12.8%; for `COc1ccc2cc(C3(C)NC(=O)NC3=O)ccc2c1` (stereo not drawn): inactive: -12%.
Take `CC12CCC(C(=O)Nc3ccccc3Br)(C/C1=N\O)C2(C)C` (stereo not drawn): the inhibition is inactive: -9.17%.
Regarding `CC12CCC(C(=O)N3CCc4ccccc43)(CC1=O)C2(C)C` (stereo not drawn), the inhibition was inactive: -4.62%.
`CCOC(=O)c1ccc(NC(=S)NCCc2ccccc2F)cc1`: the inhibition is inactive: -11.7%.
As for `NC(=O)N1c2ccccc2CC(=O)c2ccccc21`, the inhibition was inactive: -5.17%.
On to `CC(C)c1ccc(OCc2ccc(C(=O)O)o2)cc1`, for which the inhibition was inactive: -1.73%.
The same measure for `O=C(c1ccco1)N1CCCN(Cc2nc(-c3ccc4c(c3)OCO4)no2)CC1`: inactive: 7.12%; for `COc1ccc(C2=CC(=O)C=CC2=O)cc1`: active: 73.7%.
In the case of `CCOC(=O)c1ccc(N2C(=O)C(CC(=O)NC)N(CCc3ccc(OC)c(OC)c3)C2=S)cc1` (stereo not drawn), the inhibition was inactive: -0.54%.
In the case of `COc1ccc2c(c1)C=CC1(O2)N(CCO)c2ccccc2C1(C)C` (stereo not drawn), the inhibition was active: 45.5%.
As for `O=Cc1ccc(N2CCCCC2)cc1`, the figure is inactive: 0.88%; as for `C[C@]12CC[C@H]3[C@@H](CCC4=CC(=O)CC[C@@]43C)[C@@H]1CC[C@@H]2C(=O)CO`, inactive: 3.39%.
With `COc1cc(C=NCC2OCCc3ccccc32)cc(OC)c1` (stereo not drawn), the inhibition is inactive: -11%.
On to `COc1cc(NS(=O)(=O)c2ccc(N)cc2)nc(OC)n1`, for which the inhibition was inactive: -13.6%.
For `O=C(O)c1cc(-c2ccc3c(c2)OCO3)nc2ccc(Br)cc12`, the inhibition is inactive: -1.85%.
With `CC12COC3(C(=O)Nc4ccc(F)cc4)CC1CCC32C` (stereo not drawn), the inhibition is inactive: -6.36%.
In the case of `NS(=O)(=O)c1cc2c(cc1C(F)(F)F)NC(Cc1ccccc1)NS2(=O)=O` (stereo not drawn), the inhibition was inactive: 3.91%.
As for `COc1ccc([C@H]2[C@H](C(=O)OC(C)(C)C)N3N=Cc4ccccc4C3C23C(=O)c2ccccc2C3=O)cc1OC` (stereo partly drawn), the figure is inactive: -11.4%.
`O=C(N/C(=C/C=C\c1ccccc1)C(=O)N1CCOCC1)c1ccc(Br)cc1`: the inhibition was inactive: 2.29%.
On to `CC(CN1c2ccccc2Sc2ccccc21)N(C)C` (stereo not drawn), for which the inhibition is inactive: -9.88%.
`COc1ccc(NC(=O)N2CCCCC2c2cccnc2)cc1` (stereo not drawn): the inhibition is inactive: -9.64%.
For the molecule `Cc1cc(OCC(=O)C(C)(C)C)c2c(C)c(C)c(=O)oc2c1`, the inhibition was inactive: -3.63%.
With `CCOC(=O)c1c(O)c2c([nH]c1=O)CCCC2`, the inhibition is inactive: -10%.
For the molecule `Cc1ccc(OCCSc2ncccn2)c(C)c1`, the inhibition is inactive: -4.71%.
Turning to `O=C(Cc1ccccc1[N+](=O)[O-])NCc1ccncc1`, the inhibition is inactive: -10.2%.
On to `CC1(C)CC(=O)c2cn3c(nc2C1)nc1ccccc13`, for which the inhibition is inactive: -6.06%.
Consider `Cc1ccc(C(=O)O)cc1NC(=O)c1cccs1`, for which the inhibition is inactive: -7.22%.
For `O=C(NCCc1c[nH]c2ccccc12)OCCSS(=O)(=O)O`, the inhibition is inactive: -17.4%.
As for `CCn1cc(C(=O)O)c(=O)c2cc(F)c(N3CCNCC3)cc21`, the inhibition was inactive: 0.57%.
Take `Cc1ccc(N2C(=O)c3ccccc3C2=O)cc1C`: the inhibition is inactive: -2.87%.
`CN(CCc1cnn(C)c1)Cc1nc(CC2CC2)no1`: the inhibition was inactive: 2.86%.
As to `CCOC(=O)c1ccc2[nH]c(C)c(CCC(C)=O)c(=O)c2c1`, the inhibition is inactive: -7.73%.
With `CCOC(=O)C1=C(C)NC(C)=C(C(=O)OC)C1c1cccc([N+](=O)[O-])c1` (stereo not drawn), the inhibition is inactive: 8.95%.
Turning to `CC(=Nc1ccccc1)C1=C(O)CCCC1=O`, the inhibition is inactive: 2.51%.
`O=c1c(C(c2ccccc2)c2c(O)sc3ccccc3c2=O)c(O)sc2ccccc12`: the inhibition is inactive: 0.1%.
Take `CCCCOc1ccc(OCCCN2CCOCC2)cc1`: the inhibition was inactive: -2.99%.
In the case of `COc1cc2ccc(=O)oc2c(O)c1OCC=C(C)C`, the inhibition was inactive: -7.81%.
Regarding `COc1ccccc1C(=O)N=C1NC(=O)CC2C(=O)NCCN12` (stereo not drawn), the inhibition is inactive: -15.4%.
As for `CC(=O)c1c[nH]c2ccc(C)cc2c1=O`, the figure is inactive: -1%; as for `O=C(NCC1CCCCN1)c1cc(OCC(F)(F)F)ccc1OCC(F)(F)F` (stereo not drawn), inactive: 2.26%; as for `CC1CCc2cc(F)cc3c(=O)c(C(=O)O)cn1c23` (stereo not drawn), inactive: 4.36%.
On to `CC1(C)CC(CC(=O)Nc2nccs2)(c2ccccc2)CCO1` (stereo not drawn), for which the inhibition is inactive: -1.2%.
The same measure for `Cc1ccc2c(c1)C1CN(C)CCC1N2S(=O)(=O)c1ccc(Oc2ccc([N+](=O)[O-])cc2)cc1` (stereo not drawn): inactive: -5.75%; for `COc1cccc(N2C(=O)[C@H]3C(C(=O)c4cnccn4)=NN[C@H]3C2=O)c1`: inactive: 5.7%.

(Values after PubChem BioAssay AID493027 (The Scripps Research Institute Molecular Screening Center, 2011).)
